Results taken from PMC4595342.
No constants are given. Whether binding was seen depends on the method and setting. In cells and extracts the contact can be indirect. Sequences can lack the tags named with a protein.

Target: T1, KIF7-GFP (mouse) (UniProt B7ZNG0)
T1 sequence: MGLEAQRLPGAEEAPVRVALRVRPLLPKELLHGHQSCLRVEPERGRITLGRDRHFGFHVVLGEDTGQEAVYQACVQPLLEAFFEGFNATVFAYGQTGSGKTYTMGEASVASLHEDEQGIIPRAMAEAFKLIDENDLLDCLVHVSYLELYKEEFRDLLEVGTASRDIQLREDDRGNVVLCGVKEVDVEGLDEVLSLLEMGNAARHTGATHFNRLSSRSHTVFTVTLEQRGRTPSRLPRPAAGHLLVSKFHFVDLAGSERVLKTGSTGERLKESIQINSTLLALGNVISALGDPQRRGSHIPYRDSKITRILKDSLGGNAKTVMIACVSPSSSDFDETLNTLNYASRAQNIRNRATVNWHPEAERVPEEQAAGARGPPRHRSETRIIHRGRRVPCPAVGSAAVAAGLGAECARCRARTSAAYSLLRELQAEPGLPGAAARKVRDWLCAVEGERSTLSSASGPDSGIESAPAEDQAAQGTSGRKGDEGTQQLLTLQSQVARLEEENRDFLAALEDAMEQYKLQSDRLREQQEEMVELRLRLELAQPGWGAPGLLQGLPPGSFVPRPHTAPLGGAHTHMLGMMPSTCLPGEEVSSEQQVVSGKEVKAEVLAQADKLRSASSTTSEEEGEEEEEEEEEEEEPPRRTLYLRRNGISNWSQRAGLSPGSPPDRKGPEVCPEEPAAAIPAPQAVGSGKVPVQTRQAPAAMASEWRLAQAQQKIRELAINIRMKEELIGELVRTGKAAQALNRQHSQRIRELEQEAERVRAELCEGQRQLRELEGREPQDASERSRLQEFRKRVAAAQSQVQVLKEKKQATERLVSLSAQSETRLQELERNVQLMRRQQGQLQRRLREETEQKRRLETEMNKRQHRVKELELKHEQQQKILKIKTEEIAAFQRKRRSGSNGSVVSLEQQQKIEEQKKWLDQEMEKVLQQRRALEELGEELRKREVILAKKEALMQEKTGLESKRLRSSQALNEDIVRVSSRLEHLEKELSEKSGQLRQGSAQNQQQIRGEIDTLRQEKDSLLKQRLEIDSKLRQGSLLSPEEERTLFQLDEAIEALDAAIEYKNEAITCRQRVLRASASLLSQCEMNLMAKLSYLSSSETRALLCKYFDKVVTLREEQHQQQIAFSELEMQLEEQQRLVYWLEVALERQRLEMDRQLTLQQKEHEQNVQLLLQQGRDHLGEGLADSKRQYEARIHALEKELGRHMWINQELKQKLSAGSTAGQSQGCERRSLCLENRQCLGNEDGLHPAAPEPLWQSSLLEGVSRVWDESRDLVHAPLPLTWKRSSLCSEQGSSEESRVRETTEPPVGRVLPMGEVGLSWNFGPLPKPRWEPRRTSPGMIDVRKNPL
Assay: co-IP; KIF7-GFP precipitated with GFP-trap agarose beads (Chromotek GFP trap kit) from asynchronous KIF7-GFP expressing MLE15 cells; immunoblots of the precipitate; agarose beads as negative control

Q: How did the binding turn out when cyclin b (mouse (endogenous in MLE15)) was run?
A: Its binding is “no binding”.
